Paper doi:10.1101/2025.02.19.638559, “The architecture, assembly, and evolution of a complex flagellar motor” (bioRxiv, 2025)

Columns and labels:
[1] = target: FlgY_(15–172), FlgY without the predicted signal peptide (C. jejuni 81-176); assay: MST; FlgY at 200 nM in PBS with 0.05% Tween-20; PflA16-788-Strep titrated from 0 to 60 μM; Monolith NT.115, 20% LED power, 40% MST power; both purified
[2] = target: FlgY_(90–172) (C. jejuni 81-176); assay: as above

B1: PflA_(16–788) of the purified PflA_(16–788) and PflB_(113–820) complex (domain or fragment)
chain: AFELVLNTGRENNQAFAVLHASNDLEFTCQKFITEAKVHFECDIVGMVDNKLKDQSFSAFDLKFIQEAQKIKMIILPKIQARMFDTSQNIYIDKELSSSSSHKSKAFTFIFTPELAPIKDYDGLDFNINFPHESLPYVGALDLNSDPVVIPQSADINTYLRIKKEYDKANYNQVVIDAQNAINRYRGSIFTSEFILYKLRAQNKLYTQDPSMRDQQILEKMIDDAKNWTRTFTSDKNFSEVLHIMLRTYIALAQRADVEYTMSILDNEQPNNYFTQLSKLDYADYIYNLNEKEKAVNIYENTYFNTKNLDLAARAAMSLAKNLLSNEQVNKAIEYINTILKANPEYFGKDIPRSLELAKLFNQKGQFDISASIYEDAFAKMSKLDPSYEETLKDLALVLSHANRSSDAKKYLDLYMDDYLDGKYLDEIKKASDEVFFALGDNNASFLHQRYTDLMKQYANKDENIANKALDEDVALYYKEGNFSAILAYKDLIESKKIPNATQFLEKAAINDLKNAIKADNCINAANIFMRFSAYDIGQKIENKKQMLACLIRTSNVEQALDYIDKNYNEDSIFYGLQKASILFDNKQYPQVIKISKDIANSRILKSDDENFKAYYLQFLSLLRLNDYNQAIKILQILESFPMNFSMVEAYDALLSYANDHNMQTTILTYAPKAIDYQNFKGINLFSPNLEFIYLDALTKINKNEESLAVLTDLLKLKLSDEDRARALYIQALTYERMQNIQAEKESLKQCLEIKSASNWQNLCKSKNQILNQ
notes: PflA of C. jejuni 81-176, residues 16-788; only 16-163 (β-sandwich domain and flexible loop) are resolved in the cryo-EM structure; PflA16-788 was cloned both in pET22b (C-terminal 6×His) and in pET26b (C-terminal Strep-tag); also called PflA_(16–163) (the part resolved in the map)
[1]
  binding: binds
[2]
  binding: no binding (tested: 60 μM)

These are yes or no findings as the source states them, for the method shown. For some assays here: A result given as binding can be weak or reduced; the word gives no strength.
